# Assay results published in PubChem BioAssay AID330 (DTP/NCI, 2004).
# The list does not hold the whole screen: it is rich in T/C values a quarter to a half above the control, in often repeated tests (any T/C) and in doses without a T/C. Further doses and runs are listed elsewhere. T/C gives the treated animals as a percentage of the vehicle group. Some entries give survivors of the animals treated and no T/C: the source files T/C as zero there, which appears to mark a toxic dose or a test without result, not a measured value. Some doses without a T/C left all or most animals alive at the check, yet need not have been tolerated: survival well below the control is almost never listed, so the zero probably covers shortened survival too. Survivors were counted at the toxicity check, usually on the fifth day, unless a day is given; later deaths do not show. Schedules are NCI's codes, read here as Q, the interval in days (D) or hours (H), X, the number of doses. Brackets with × say how often a value occurs here. Where survival is the endpoint, the PubChem record calls one and a half times the control and up active, and a quarter to a half above the control has no call in these data; cut-offs in other NCI protocols can differ. Some entries were tested several times; the values are given in rising order. Some T/C values are followed by the survivors on the day toxicity was checked, most often the fifth; where none is given, no animal had died by that day.
# Tested on: P388 leukemia ip, CD2F1 mice, survival T/C
# Assay: NCI In Vivo Anticancer Drug Screen. Data for tumor model P388 Leukemia (intraperitoneal) in CD2F1 (CDF1) mice
# Conditions: T/C endpoint: median survival time, higher T/C = longer survival
# [1] = dose: 100.0 mg/kg/injection, schedule: Q01DX009 (ip), vehicle: Klucel (hydroxypropylcellulose) (HPC)
# [2] = dose: 200.0 mg/kg/injection, schedule: Q01DX009 (ip), vehicle: Klucel (hydroxypropylcellulose) (HPC)
# [3] = dose: 240.0 mg/kg/injection, schedule: Q01DX005 (ip), vehicle: Klucel (hydroxypropylcellulose) (HPC)
# [4] = dose: 240.0 mg/kg/injection, schedule: Q01DX005 (ip), vehicle: saline with Tween-80
# [5] = dose: 100.0 mg/kg/injection, schedule: Q01DX009 (ip), vehicle: saline with Tween-80
# [6] = dose: 400.0 mg/kg/injection, schedule: Q04DX003 (ip), vehicle: saline
# [7] = dose: 25.0 mg/kg/injection, schedule: Q01DX005 (ip), vehicle: saline with Tween-80
# [8] = dose: 50.0 mg/kg/injection, schedule: Q01DX005 (ip), vehicle: saline with Tween-80
smiles,measurement,setting,value
COc1ccc2nc(C)cc(N/N=C/c3cccc(C)n3)c2c1,T/C,"dose: 50.0 mg/kg/injection, schedule: Q01DX009 (ip), vehicle: Klucel (hydroxypropylcellulose) (HPC)",125 % of control
same,survivor count,[1],6 of 6 (2×)
same,survivor count,[2],5 of 6
CCC[CH2][Sn]([CH2]CCC)([CH2]CCC)[CH2]CCCNCCCN(C)C,survivor count,"dose: 200.0 mg/kg/injection, schedule: Q01DX009 (ip), vehicle: saline",0 of 6
CN1C=C([N+](=O)[O-])C(N2CCOCC2)C1N1CCOCC1 (stereo unspecified),survivor count,[3],1 of 6
[Cu+2].[NH-]C(CC(=O)O)C(=O)O.[NH-]C(CC(=O)O)C(=O)O (stereo unspecified),survivor count,"dose: 60.0 mg/kg/injection, schedule: Q01DX005 (ip), vehicle: saline with Tween-80",1 of 6
same,survivor count,"dose: 120.0 mg/kg/injection, schedule: Q01DX005 (ip), vehicle: saline with Tween-80",0 of 6
same,survivor count,[4],0 of 6
N#Cc1cc2ccncc2c2ccccc12,survivor count,[5],6 of 6
COc1cc(N)c(C)c2c(C)ccnc12,survivor count,"dose: 120.0 mg/kg/injection, schedule: Q01DX005 (ip), vehicle: Klucel (hydroxypropylcellulose) (HPC)",0 of 6
same,survivor count,[3],0 of 6
COc1cc([C@@H]2c3cc4c(c(O)c3C[C@H]3COC(=O)[C@@H]32)OCO4)cc(OC)c1O,T/C,"dose: 0.12 mg/kg/injection, schedule: Q01DX009 (ip), vehicle: saline",129 % of control
same,T/C,"dose: 0.12 mg/kg/injection, schedule: Q01DX009 (ip), vehicle: suspension in saline",126 % of control
same,T/C,"dose: 0.25 mg/kg/injection, schedule: Q01DX009 (ip), vehicle: saline",127 % of control
same,T/C,"dose: 0.5 mg/kg/injection, schedule: Q01DX009 (ip), vehicle: saline",129 % of control
same,T/C,"dose: 0.5 mg/kg/injection, schedule: Q01DX009 (ip), vehicle: suspension in saline",136 % of control
same,survivor count,"dose: 2.0 mg/kg/injection, schedule: Q01DX009 (ip), vehicle: saline",6 of 6
same,survivor count,"dose: 2.0 mg/kg/injection, schedule: Q01DX009 (ip), vehicle: suspension in saline",5 of 6
same,survivor count,"dose: 4.0 mg/kg/injection, schedule: Q01DX009 (ip), vehicle: saline",4 of 6
same,survivor count,"dose: 4.0 mg/kg/injection, schedule: Q01DX009 (ip), vehicle: suspension in saline",2 of 6
CCOCCC(O)CC (stereo unspecified),T/C,[6],136 % of control
NC(COC(c1ccccc1)(c1ccccc1)c1ccccc1)C(=O)O (stereo unspecified),T/C,[6],131 % of control [5 of 6 alive]
O=C1c2cccc([N+](=O)[O-])c2C(=O)c2nccnc21,survivor count,"dose: 25.0 mg/kg/injection, schedule: Q01DX005 (ip), vehicle: Klucel (hydroxypropylcellulose) (HPC)",1 of 6
same,survivor count,"dose: 50.0 mg/kg/injection, schedule: Q01DX005 (ip), vehicle: Klucel (hydroxypropylcellulose) (HPC)",0 of 6
same,survivor count,"dose: 100.0 mg/kg/injection, schedule: Q01DX005 (ip), vehicle: Klucel (hydroxypropylcellulose) (HPC)",0 of 6
same,survivor count,"dose: 200.0 mg/kg/injection, schedule: Q01DX005 (ip), vehicle: Klucel (hydroxypropylcellulose) (HPC)",0 of 6
Cc1c2oc3c(C)ccc(C(=O)NC4C(=O)NC(C(C)C)C(=O)N5CCCC5C(=O)N(C)CC(=O)N(C)C(C(C)C)C(=O)OC4C)c3nc-2c(C(=O)NC2C(=O)NC(C(C)C)C(=O)N3CCC3C(=O)N(C)CC(=O)N(C)C(C(C)C)C(=O)OC2C)c(N)c1=O (stereo unspecified),T/C,"dose: 0.1 mg/kg/injection, schedule: Q01DX009 (ip), vehicle: water",142 % of control
same,survivor count,"dose: 0.2 mg/kg/injection, schedule: Q01DX009 (ip), vehicle: water",6 of 6
same,survivor count,"dose: 0.4 mg/kg/injection, schedule: Q01DX009 (ip), vehicle: water",6 of 6
same,T/C,"dose: 0.6 mg/kg/injection, schedule: Q04DX003 (ip), vehicle: saline",128 % of control
same,survivor count,"dose: 0.8 mg/kg/injection, schedule: Q01DX009 (ip), vehicle: water",0 of 6
same,T/C,"dose: 1.2 mg/kg/injection, schedule: Q04DX003 (ip), vehicle: saline",137 % of control
same,survivor count,"dose: 1.6 mg/kg/injection, schedule: Q01DX009 (ip), vehicle: water",0 of 6
same,T/C,"dose: 6.3 micrograms/kg/injection, schedule: Q01DX009 (ip), vehicle: water",149 % of control
same,T/C,"dose: 25.0 micrograms/kg/injection, schedule: Q01DX009 (ip), vehicle: saline",140 % of control
same,survivor count,"dose: 200.0 micrograms/kg/injection, schedule: Q01DX009 (ip), vehicle: water",6 of 6
same,survivor count,"dose: 417.0 micrograms/kg/injection, schedule: Q01DX009 (ip), vehicle: saline + alcohol",8 of 8
COC(=O)c1cc(CC[N+](C)(C)Cc2ccccc2)c2ccccn12,survivor count,"dose: 100.0 mg/kg/injection, schedule: Q04DX002 (ip), vehicle: saline",0 of 6
same,survivor count,"dose: 200.0 mg/kg/injection, schedule: Q04DX002 (ip), vehicle: saline",0 of 6
same,survivor count,"dose: 400.0 mg/kg/injection, schedule: Q04DX002 (ip), vehicle: saline",0 of 6
CN1CCCN(C(c2ccccc2)c2ccc(Cl)cc2)CC1 (stereo unspecified),T/C,"dose: 50.0 mg/kg/injection, schedule: Q01DX009 (ip), vehicle: saline with Tween-80",125 % of control
same,survivor count,[5],1 of 6
Nc1ccc2ccc(NS(=O)(=O)N3CCCCC3)cc2c1,T/C,[7],125 % of control
same,T/C,[8],"100, 107, 109 (2×), 111 % of control"
same,T/C,"dose: 100.0 mg/kg/injection, schedule: Q01DX005 (ip), vehicle: saline with Tween-80","111, 114, 115, 118, 137 % of control"
same,T/C,"dose: 200.0 mg/kg/injection, schedule: Q01DX005 (ip), vehicle: saline with Tween-80","118, 135, 156, 160, 161 % of control"
same,T/C,"dose: 400.0 mg/kg/injection, schedule: Q01DX005 (ip), vehicle: saline with Tween-80","135 [9 of 10 alive], 147, 153, 154 % of control"
same,T/C,"dose: 600.0 mg/kg/injection, schedule: Q01DX005 (ip), vehicle: saline with Tween-80",128 % of control [8 of 10 alive]
O=C(O)CCSC1=CC(=O)c2ccccc2C1=O,survivor count,"dose: 25.0 mg/kg/injection, schedule: Q04DX003 (ip), vehicle: gum acacia",1 of 6
same,survivor count,"dose: 100.0 mg/kg/injection, schedule: Q04DX003 (ip), vehicle: gum acacia",0 of 6
same,survivor count,"dose: 200.0 mg/kg/injection, schedule: Q04DX003 (ip), vehicle: gum acacia",0 of 6
same,survivor count,"dose: 400.0 mg/kg/injection, schedule: Q04DX003 (ip), vehicle: gum acacia",0 of 6
C=CC12CCCCC1CCC(=O)C2 (stereo unspecified),survivor count,[1],0 of 6
same,survivor count,[2],1 of 6
Nc1nc2nc[nH]c2c(=O)[nH]1,survivor count,"dose: 200.0 mg/kg/injection, schedule: Q01DX009 (ip), vehicle: saline with Tween-80",6 of 6
same,survivor count,"dose: 400.0 mg/kg/injection, schedule: Q01DX009 (ip), vehicle: saline with Tween-80",0 of 6
same,survivor count,"dose: 800.0 mg/kg/injection, schedule: Q01DX009 (ip), vehicle: saline with Tween-80",0 of 6
same,survivor count,"dose: 800.0 mg/kg/injection, schedule: Q01DX009 (ip), vehicle: suspension in saline",0 of 6
same,survivor count,"dose: 1600.0 mg/kg/injection, schedule: Q01DX009 (ip), vehicle: saline with Tween-80",0 of 6
same,survivor count,"dose: 1600.0 mg/kg/injection, schedule: Q01DX009 (ip), vehicle: suspension in saline",0 of 6
Cn1c(=O)[nH]c(N)c(C(=O)CCl)c1=O,survivor count,[4],0 of 6
CN(C)N1C(=O)C(C(=O)Nc2cccc3ccccc23)SC1=S (stereo unspecified),survivor count,"dose: 6.25 mg/kg/injection, schedule: Q01DX005 (ip), vehicle: saline with Tween-80",5 of 5
same,survivor count,"dose: 12.5 mg/kg/injection, schedule: Q01DX005 (ip), vehicle: saline with Tween-80",5 of 5
same,survivor count,[7],5 of 5
same,survivor count,[8],5 of 5
COc1cc2c(cc1OC)/C(=N/N=C1\CCCc3cc(OC)c(OC)cc31)CCC2,survivor count,"dose: 50.0 mg/kg/injection, schedule: Q01DX009 (ip), vehicle: water",6 of 6
